# Values from PubChem BioAssay AID1259323 (Peter MacCallum Cancer Centre, 2017).
# Purpose: 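Kinase knock-downs that weaken TRPV4 calcium entry after PAR2 activation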 (primary screen)
# System: human HEK293 cells stably carrying inducible TRPV4
# Reagents: siRNA pool against human genes
# Conditions: PAR2 activation; agonist identity and dose not given
# Measured: 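Signal of a calcium dye in live cells following PAR2 activation, plateau and early peak normalised to mock transfection on each plate, mean of duplicate plates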
# Direction: TRPV4 plateau calcium, % of mock: higher = stronger sustained TRPV4 calcium entry than mock; PAR2 peak calcium, % of mock: higher = stronger early PAR2 calcium response than mock
# Call rule: 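Active if plateau calcium is under 90% of mock and early peak calcium stays over 79% of mock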
# The whole screen tested 715 reagents; this is a random part of them. 91 of them (13%) count as active. 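Active pools lower the sustained TRPV4 phase but spare the early PAR2 peak; PAR2 agonist and dose are not stated; pools repeat across wells.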 Unmarked entries are inactive. A reagent listed more than once was tested more than once; the source does not tell the runs apart. Not given: the amount of reagent, the time to read-out.
gene,"TRPV4 plateau calcium, % of mock","PAR2 peak calcium, % of mock"
ACVR1C,109,99.8
CIB2,101,95.7
DGKD,108,105
BRD4,99.7,96.9
CDK16,109,103
PKN3,115,109
PRKCQ,98.5,98.6
JAK3,80 (active),79.4
STK16,116,103
MAGI3,85.4 (active),89
CSNK1G3,93.7,95.2
ATR,104,102
AKT3,108,107
PIM2,97.9,98.8
PAPSS1,92.9,95.3
TWF1,105,103
CAMK4,107,105
PIK3CA,103,98.8
ZAP70,109,102
MYLK3,91.5,91.9
MAP3K9,95.3,99.5
MARK2,114,108
DGKH,109,104
PANK4,103,98.7
PFKFB1,107,105
BMP2K,95.3,94
ATM,93,104
EIF2AK4,103,104
CAMK2G,90.3,86.1
PIKFYVE,94.3,103
TGFBR2,90.1,95.2
MAP4K3,97.8,101
SPEG,99.8,100
LMTK3,94.7,96
FLT3,90 (active),91.6
PSKH1,89.4 (active),88.9
UHMK1,93.8,92.7
PANK1,103,103
WHR1,92,91.2
PRPS1L1,91.3,98.4
BRDT,109,108
CDK1,86.3 (active),93.5
CHKB,103,103
CDC42BPG,96.5,95.5
STYK1,96.6,92.5
CHKA,88.1 (active),87.9
CAMK1D,96.9,95.8
MAP3K8,97.4,95
CHEK2,97.8,97
TAOK1,96.6,97.9
POMK,90.5,92.1
POMK,106,102
ANKK1,114,112
EIF2AK3,94.5,94.3
EEF2K,94.4,93.1
MAP3K5,110,108
NIM1K,100,97.2

A portion from the list above, as a working copy:
gene,"TRPV4 plateau calcium, % of mock","PAR2 peak calcium, % of mock"
PIM2,97.9,98.8
PAPSS1,92.9,95.3
TWF1,105,103
